{"source": "the supplement of paper PMC8728848", "assay_in_all_cases": "glycan array binding signal (z-score within array); higher = stronger binding", "details_in_all_cases": "glycan notation: IUPAC condensed, linker removed", "key": {"[1]": {"target": "Fuc(a1-2)[GalNAc(a1-3)]Gal(b1-3)GalNAc(b1-3)Gal(a1-4)Gal(b1-4)Glc", "procedure,_shortened": "(§1)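 Glycan array data came from 3228 arrays in the Consortium for Functional Glycomics database, and only arrays with an available protein sequence were kept. Glycan names were put into IUPAC-condensed notation, and columns mapping to the same glycan were averaged. The binding signal is a within-array Z-score, averaged across arrays of one protein sequence run at different concentrations or buffers and across linkers. A negative Z-score can be read as non-binding.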"}, "[2]": {"target": "Fuc(a1-2)[GalNAc(a1-3)]Gal(b1-3)GlcNAc", "procedure,_shortened": "as §1"}, "[3]": {"target": "Fuc(a1-2)[GalNAc(a1-3)]Gal(b1-3)GlcNAc(b1-2)Man(a1-3)[Fuc(a1-2)[GalNAc(a1-3)]Gal(b1-3)GlcNAc(b1-2)Man(a1-6)]Man(b1-4)GlcNAc(b1-4)GlcNAc", "procedure,_shortened": "as §1"}, "[4]": {"target": "Fuc(a1-2)[GalNAc(a1-3)]Gal(b1-3)GlcNAc(b1-2)Man(a1-3)[Fuc(a1-2)[GalNAc(a1-3)]Gal(b1-3)GlcNAc(b1-2)Man(a1-6)]Man(b1-4)GlcNAc(b1-4)[Fuc(a1-6)]GlcNAc", "procedure,_shortened": "as §1"}, "[5]": {"target": "Fuc(a1-2)[GalNAc(a1-3)]Gal(b1-3)GlcNAc(b1-3)GalNAc", "procedure,_shortened": "as §1"}, "[6]": {"target": "Fuc(a1-2)[GalNAc(a1-3)]Gal(b1-3)GlcNAc(b1-6)GalNAc", "procedure,_shortened": "as §1"}, "[7]": {"target": "Fuc(a1-2)[GalNAc(a1-3)]Gal(b1-4)Glc", "procedure,_shortened": "as §1"}, "[8]": {"target": "Fuc(a1-2)[GalNAc(a1-3)]Gal(b1-4)GlcNAc", "procedure,_shortened": "as §1"}, "[9]": {"target": "Fuc(a1-2)[GalNAc(a1-3)]Gal(b1-4)GlcNAc(b1-2)Man", "procedure,_shortened": "as §1"}, "[10]": {"target": "Fuc(a1-2)[GalNAc(a1-3)]Gal(b1-4)GlcNAc(b1-2)Man(a1-3)[Fuc(a1-2)[GalNAc(a1-3)]Gal(b1-4)GlcNAc(b1-2)Man(a1-6)]Man(b1-4)GlcNAc(b1-4)GlcNAc", "procedure,_shortened": "as §1"}, "[11]": {"target": "Fuc(a1-2)[GalNAc(a1-3)]Gal(b1-4)GlcNAc(b1-2)Man(a1-3)[Fuc(a1-2)[GalNAc(a1-3)]Gal(b1-4)GlcNAc(b1-2)Man(a1-6)]Man(b1-4)GlcNAc(b1-4)[Fuc(a1-6)]GlcNAc", "procedure,_shortened": "as §1"}, "[12]": {"target": "Fuc(a1-2)[GalNAc(a1-3)]Gal(b1-4)GlcNAc(b1-3)Gal(b1-4)GlcNAc", "procedure,_shortened": "as §1"}, "[13]": {"target": "Fuc(a1-2)[GalNAc(a1-3)]Gal(b1-4)GlcNAc(b1-3)Gal(b1-4)GlcNAc(b1-3)Gal(b1-4)GlcNAc", "procedure,_shortened": "as §1"}, "[14]": {"target": "Fuc(a1-2)[GalNAc(a1-3)]Gal(b1-4)GlcNAc(b1-3)GalNAc", "procedure,_shortened": "as §1"}, "[15]": {"target": "Fuc(a1-2)[GalNAc(a1-3)]Gal(b1-4)GlcNAc(b1-3)[Fuc(a1-2)[GalNAc(a1-3)]Gal(b1-4)GlcNAc(b1-6)]GalNAc", "procedure,_shortened": "as §1"}, "[16]": {"target": "Fuc(a1-2)[GalNAc(a1-3)]Gal(b1-4)GlcNAc(b1-6)GalNAc", "procedure,_shortened": "as §1"}, "[17]": {"target": "Fuc(a1-2)[GalNAc(a1-3)]Gal(b1-4)[Fuc(a1-3)]GlcNAc", "procedure,_shortened": "as §1"}, "[18]": {"target": "Fuc(a1-2)[GalNAc(a1-3)]Gal(b1-4)[Fuc(a1-3)]GlcNAc(b1-3)GalNAc", "procedure,_shortened": "as §1"}, "[19]": {"target": "Fuc(a1-2)[GalNAc(a1-4)]Gal(b1-4)GlcNAc", "procedure,_shortened": "as §1"}, "[20]": {"target": "Fuc(a1-2)[GalNAc(b1-3)]Gal", "procedure,_shortened": "as §1"}, "[21]": {"target": "Fuc(a1-3)GlcNAc", "procedure,_shortened": "as §1"}, "[22]": {"target": "Fuc(a1-3)[Gal(b1-4)]Glc6S", "procedure,_shortened": "as §1"}, "[23]": {"target": "Fuc(a1-3)[Gal(b1-4)]GlcNAc", "procedure,_shortened": "as §1"}, "[24]": {"target": "Fuc(a1-3)[Gal(b1-4)]GlcNAc(b1-2)Man", "procedure,_shortened": "as §1"}, "[25]": {"target": "Fuc(a1-3)[Gal(b1-4)]GlcNAc(b1-2)Man(a1-3)[Fuc(a1-3)[Gal(b1-4)]GlcNAc(b1-2)Man(a1-6)]Man(b1-4)GlcNAc(b1-4)GlcNAc", "procedure,_shortened": "as §1"}, "[26]": {"target": "Fuc(a1-3)[Gal(b1-4)]GlcNAc(b1-2)Man(a1-3)[Fuc(a1-3)[Gal(b1-4)]GlcNAc(b1-2)Man(a1-6)]Man(b1-4)GlcNAc(b1-4)[Fuc(a1-6)]GlcNAc", "procedure,_shortened": "as §1"}, "[27]": {"target": "Fuc(a1-3)[Gal(b1-4)]GlcNAc(b1-3)Gal(b1-3)[Fuc(a1-4)]GlcNAc", "procedure,_shortened": "as §1"}, "[28]": {"target": "Fuc(a1-3)[Gal(b1-4)]GlcNAc(b1-3)Gal(b1-4)[Fuc(a1-3)]GlcNAc", "procedure,_shortened": "as §1"}, "[29]": {"target": "Fuc(a1-3)[Gal(b1-4)]GlcNAc(b1-3)Gal(b1-4)[Fuc(a1-3)]GlcNAc(b1-3)Gal(b1-4)[Fuc(a1-3)]GlcNAc", "procedure,_shortened": "as §1"}, "[30]": {"target": "Fuc(a1-3)[Gal(b1-4)]GlcNAc(b1-3)GalNAc", "procedure,_shortened": "as §1"}, "[31]": {"target": "Fuc(a1-3)[Gal(b1-4)]GlcNAc(b1-4)Gal(b1-4)[Fuc(a1-3)]GlcNAc", "procedure,_shortened": "as §1"}, "[32]": {"target": "Fuc(a1-3)[Gal(b1-4)]GlcNAc(b1-4)Gal(b1-4)[Fuc(a1-3)]GlcNAc(b1-4)Gal(b1-4)[Fuc(a1-3)]GlcNAc", "procedure,_shortened": "as §1"}, "[33]": {"target": "Fuc(a1-3)[Gal(b1-4)]GlcNAc(b1-6)GalNAc", "procedure,_shortened": "as §1"}, "[34]": {"target": "Fuc(a1-3)[Gal(b1-4)]GlcNAc(b1-6)[Gal(b1-3)GlcNAc(b1-3)]Gal(b1-4)Glc", "procedure,_shortened": "as §1"}, "[35]": {"target": "Fuc(a1-3)[Gal(b1-4)]GlcNAc(b1-6)[Neu5Ac(a2-3)Gal(b1-3)]GalNAc", "procedure,_shortened": "as §1"}, "[36]": {"target": "Fuc(a1-3)[Gal(b1-4)]GlcNAc6S", "procedure,_shortened": "as §1"}, "[37]": {"target": "Fuc(a1-3)[Gal3S(b1-4)]Glc", "procedure,_shortened": "as §1"}}, "note": "Some of the results follow."}
{"binder": "KISKRILTGKK", "note": "[NK11 (Sus scrofa)]", "values": [{"measurement": "glycan array binding signal (z-score)", "setting": "[1]", "result": 1.06}, {"measurement": "glycan array binding signal (z-score)", "setting": "[2]", "result": 0.316}, {"measurement": "glycan array binding signal (z-score)", "setting": "[3]", "result": -0.032}, {"measurement": "glycan array binding signal (z-score)", "setting": "[4]", "result": 0.353}, {"measurement": "glycan array binding signal (z-score)", "setting": "[5]", "result": 0.052}, {"measurement": "glycan array binding signal (z-score)", "setting": "[6]", "result": -0.371}, {"measurement": "glycan array binding signal (z-score)", "setting": "[7]", "result": 0.231}, {"measurement": "glycan array binding signal (z-score)", "setting": "[8]", "result": 0.037}, {"measurement": "glycan array binding signal (z-score)", "setting": "[9]", "result": -1.03}, {"measurement": "glycan array binding signal (z-score)", "setting": "[10]", "result": 0.922}, {"measurement": "glycan array binding signal (z-score)", "setting": "[11]", "result": 0.421}, {"measurement": "glycan array binding signal (z-score)", "setting": "[12]", "result": -0.818}, {"measurement": "glycan array binding signal (z-score)", "setting": "[13]", "result": 0.599}, {"measurement": "glycan array binding signal (z-score)", "setting": "[14]", "result": -1.25}, {"measurement": "glycan array binding signal (z-score)", "setting": "[15]", "result": 0.196}, {"measurement": "glycan array binding signal (z-score)", "setting": "[16]", "result": -0.253}, {"measurement": "glycan array binding signal (z-score)", "setting": "[17]", "result": -0.15}, {"measurement": "glycan array binding signal (z-score)", "setting": "[18]", "result": 0.275}, {"measurement": "glycan array binding signal (z-score)", "setting": "[19]", "result": -0.524}, {"measurement": "glycan array binding signal (z-score)", "setting": "[20]", "result": -0.608}, {"measurement": "glycan array binding signal (z-score)", "setting": "[21]", "result": -0.64}, {"measurement": "glycan array binding signal (z-score)", "setting": "[22]", "result": -0.446}, {"measurement": "glycan array binding signal (z-score)", "setting": "[23]", "result": -0.409}, {"measurement": "glycan array binding signal (z-score)", "setting": "[24]", "result": 0.202}, {"measurement": "glycan array binding signal (z-score)", "setting": "[25]", "result": -0.485}, {"measurement": "glycan array binding signal (z-score)", "setting": "[26]", "result": 0.444}, {"measurement": "glycan array binding signal (z-score)", "setting": "[27]", "result": -0.463}, {"measurement": "glycan array binding signal (z-score)", "setting": "[28]", "result": 0.057}, {"measurement": "glycan array binding signal (z-score)", "setting": "[29]", "result": -1.85}, {"measurement": "glycan array binding signal (z-score)", "setting": "[30]", "result": 0.611}, {"measurement": "glycan array binding signal (z-score)", "setting": "[31]", "result": -0.315}, {"measurement": "glycan array binding signal (z-score)", "setting": "[32]", "result": -0.886}, {"measurement": "glycan array binding signal (z-score)", "setting": "[33]", "result": 0.212}, {"measurement": "glycan array binding signal (z-score)", "setting": "[34]", "result": -0.334}, {"measurement": "glycan array binding signal (z-score)", "setting": "[35]", "result": -0.094}, {"measurement": "glycan array binding signal (z-score)", "setting": "[36]", "result": 0.867}, {"measurement": "glycan array binding signal (z-score)", "setting": "[37]", "result": 0.463}]}
